Some results were stated once for a whole list of compounds, not compound by compound.
Molecular target: T1, Recombinant human BACE1 (Homo sapiens, UniProt P56817)
T1 construct: purchased R&D Systems
Assay: Assay of BACE1 inhibiting activity
Assay type: biochemical
Details: Recombinant human BACE1 7.4 nmol/L, substrate peptide 18 nmol/L, pH 5.0, 30° C., 3.5 hours; read-out: 50% inhibitory concentration against the enzymatic activity (IC50)
Procedure: 48.5 μL of substrate peptide solution (Biotin-XSEVNLDAEFRHDSGC-Eu: X=ε-amino-n-capronic acid, Eu=Europium cryptate) was added to each well of 96-hole half-area plate (a black plate: Costar), and after addition of 0.5 μl of the compound of the present invention (DMSO solution) and 1 μl of Recombinant human BACE1(R&D Systems), the reaction mixture was incubated at 30° C. for 3.5 hours. The substrate peptide was synthesized by reacting Cryptate TBPCOOH mono SMP (CIS bio international) with Biotin-XSEVNLDAEFRHDSGC (Peptide Institute, Inc.). The final concentrations of the substrate peptide and Recombinant human BACE1 were adjusted to 18 nmol/L and 7.4 nmol/L, respectively, and the reaction was performed in sodium acetate buffer (50 mmol/L sodium acetate, pH 5.0, 0.008% Triton X-100).
After the incubation for reaction, 50 μl of 8.0 μg/ml Streptavidin-XL665 (CIS bio international) dissolved in phosphate buffer (150 mmol/L K2 HPO4—KH2 PO4, pH 7.0, 0.008% Triton X-100, 0.8 mol/L KF) was added to each well and left stand at 30° C. for 45 minutes. After then, fluorescence intensity was measured (excitation wavelength: 320 nm, measuring wavelength: 620 nm and 665 nm) using Wallac 1420 multilabel counter (Perkin Elmer life sciences).

Protein sequences, listed by entry. Tags and fused reporters are not part of them. Residues count along the entry.
UniProt P56817, 46-501: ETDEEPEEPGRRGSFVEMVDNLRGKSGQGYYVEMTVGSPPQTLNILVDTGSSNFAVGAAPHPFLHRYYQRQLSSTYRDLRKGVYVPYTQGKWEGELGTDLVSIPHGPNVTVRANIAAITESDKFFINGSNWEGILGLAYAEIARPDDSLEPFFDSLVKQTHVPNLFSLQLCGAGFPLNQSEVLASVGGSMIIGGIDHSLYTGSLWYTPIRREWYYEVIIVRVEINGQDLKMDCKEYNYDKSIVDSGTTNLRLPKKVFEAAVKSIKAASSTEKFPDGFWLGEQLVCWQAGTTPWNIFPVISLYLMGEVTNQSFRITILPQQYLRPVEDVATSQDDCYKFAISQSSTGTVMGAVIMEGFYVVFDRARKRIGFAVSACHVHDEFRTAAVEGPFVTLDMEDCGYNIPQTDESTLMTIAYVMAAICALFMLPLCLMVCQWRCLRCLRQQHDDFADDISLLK

Structure (SMILES)	IC50
C[C@@]1(c2cc(NC(=O)c3ncc(C#N)cc3F)ccc2F)C=C(CF)OC(N)=N1 [Compound I-36]	≤ 1000 nM
CCOc1cnc(C(=O)Nc2ccc(F)c([C@]3(C)C=C(CF)OC(N)=N3)c2)c(N)n1 [Compound I-64]	≤ 1000 nM
Cc1cc(Cl)cnc1C(=O)Nc1ccc(F)c([C@]2(C)C=C(CF)OC(N)=N2)c1 [Compound I-98]	≤ 1000 nM
CC1=C[C@@](CF)(c2cc(NC(=O)c3coc(CF)n3)ccc2F)N=C(N)O1 [Compound I-93]	≤ 1000 nM
Cc1cc(C(F)F)cnc1C(=O)Nc1ccc(F)c([C@]2(C)C=C(CF)OC(N)=N2)c1 [Compound I-29]	≤ 1000 nM
C[C@@]1(c2cc(NC(=O)c3ncc(C#N)cc3C(F)F)ccc2Cl)C=C(CF)OC(N)=N1 [Compound I-51]	≤ 1000 nM
C=Cc1ccc(C(=O)Nc2ccc(F)c([C@]3(C)C=C(C)OC(N)=N3)c2)nc1 [Compound I-13]	≤ 1000 nM
Cc1cc(C#N)cnc1C(=O)Nc1cccc([C@]2(C)C=C(CF)OC(N)=N2)c1 [Compound I-28]	≤ 1000 nM
CC1=C[C@@](CF)(c2cc(NC(=O)c3ncc(OCF)nc3N)ccc2F)N=C(N)O1 [Compound I-152]	≤ 1000 nM
C[C@@]1(c2cccc(NC(=O)c3ncc(C(F)F)nc3N)c2)C=C(CF)OC(N)=N1 [Compound I-149]	≤ 1000 nM
C[C@@]1(c2cc(NC(=O)c3cnc(OCC(F)F)cn3)ccc2F)C=C(CF)OC(N)=N1 [Compound I-86]	≤ 1000 nM
C[C@@]1(c2cc(NC(=O)c3ncc(OCF)nc3N)ccc2Cl)C=C(CF)OC(N)=N1 [Compound I-147]	≤ 1000 nM
C#Cc1cnc(C(=O)Nc2ccc(F)c([C@]3(C)C=C(CF)OC(N)=N3)c2)c(C(F)F)c1 [Compound I-99]	≤ 1000 nM
C[C@@]1(c2cc(NC(=O)c3ncc(C#N)cc3F)ccc2F)C=COC(N)=N1 [Compound I-9]	≤ 1000 nM
C[C@@]1(c2cc(NC(=O)c3cnc(C(F)(F)F)cn3)ccc2F)C=C(CF)OC(N)=N1 [Compound I-41]	≤ 1000 nM
C[C@@]1(c2cc(NC(=O)c3coc(CF)n3)ccc2Cl)C=C(CF)OC(N)=N1 [Compound I-49]	≤ 1000 nM
C[C@@]1(c2cccc(NC(=O)c3ncc(C#N)cc3CF)c2)C=C(CF)OC(N)=N1 [Compound I-136]	≤ 1000 nM
CC1=C[C@@](C)(c2cc(NC(=O)c3ncc(F)cc3F)ccn2)N=C(N)O1 [Compound I-77]	≤ 1000 nM
C[C@@]1(c2cc(NC(=O)c3cnc(OCF)cn3)ccc2Cl)C=C(CF)OC(N)=N1 [Compound I-45]	≤ 1000 nM
Cc1cc(C#N)cnc1C(=O)Nc1ccc(Cl)c([C@]2(C)C=C(CF)OC(N)=N2)c1 [Compound I-106]	≤ 1000 nM
C[C@@]1(c2cccc(NC(=O)c3ncc(C#N)cc3C(F)F)c2)C=C(CF)OC(N)=N1 [Compound I-27]	≤ 1000 nM
NC1=N[C@](CF)(c2cc(NC(=O)c3ccc(Cl)cn3)ccc2F)C=CO1 [Compound I-161]	≤ 1000 nM
Cc1cc(OCF)cnc1C(=O)Nc1ccc(F)c([C@]2(C)C=C(CF)OC(N)=N2)c1 [Compound I-59]	≤ 1000 nM
CC(C)OCC1=C[C@@](C)(c2cc(NC(=O)c3ccc(C#N)cn3)ccc2F)N=C(N)O1 [Compound I-70]	≤ 1000 nM
C[C@@]1(c2cc(NC(=O)c3ncc(Cl)cc3Cl)ccc2F)C=C(CF)OC(N)=N1 [Compound I-34]	≤ 1000 nM
C[C@@]1(c2cc(NC(=O)c3ncc(C#N)cc3C3CC3)ccc2F)C=C(CF)OC(N)=N1 [Compound I-103]	≤ 1000 nM
C[C@@]1(c2cc(NC(=O)c3ncc(C#N)cc3C(F)(F)F)ccc2F)C=C(C(F)F)OC(N)=N1 [Compound I-159]	≤ 1000 nM
